Here are results for one molecule from PMC6949271.

The chains behind the UniProt entries cited, without tags or fusion partners.
UniProt Q92547: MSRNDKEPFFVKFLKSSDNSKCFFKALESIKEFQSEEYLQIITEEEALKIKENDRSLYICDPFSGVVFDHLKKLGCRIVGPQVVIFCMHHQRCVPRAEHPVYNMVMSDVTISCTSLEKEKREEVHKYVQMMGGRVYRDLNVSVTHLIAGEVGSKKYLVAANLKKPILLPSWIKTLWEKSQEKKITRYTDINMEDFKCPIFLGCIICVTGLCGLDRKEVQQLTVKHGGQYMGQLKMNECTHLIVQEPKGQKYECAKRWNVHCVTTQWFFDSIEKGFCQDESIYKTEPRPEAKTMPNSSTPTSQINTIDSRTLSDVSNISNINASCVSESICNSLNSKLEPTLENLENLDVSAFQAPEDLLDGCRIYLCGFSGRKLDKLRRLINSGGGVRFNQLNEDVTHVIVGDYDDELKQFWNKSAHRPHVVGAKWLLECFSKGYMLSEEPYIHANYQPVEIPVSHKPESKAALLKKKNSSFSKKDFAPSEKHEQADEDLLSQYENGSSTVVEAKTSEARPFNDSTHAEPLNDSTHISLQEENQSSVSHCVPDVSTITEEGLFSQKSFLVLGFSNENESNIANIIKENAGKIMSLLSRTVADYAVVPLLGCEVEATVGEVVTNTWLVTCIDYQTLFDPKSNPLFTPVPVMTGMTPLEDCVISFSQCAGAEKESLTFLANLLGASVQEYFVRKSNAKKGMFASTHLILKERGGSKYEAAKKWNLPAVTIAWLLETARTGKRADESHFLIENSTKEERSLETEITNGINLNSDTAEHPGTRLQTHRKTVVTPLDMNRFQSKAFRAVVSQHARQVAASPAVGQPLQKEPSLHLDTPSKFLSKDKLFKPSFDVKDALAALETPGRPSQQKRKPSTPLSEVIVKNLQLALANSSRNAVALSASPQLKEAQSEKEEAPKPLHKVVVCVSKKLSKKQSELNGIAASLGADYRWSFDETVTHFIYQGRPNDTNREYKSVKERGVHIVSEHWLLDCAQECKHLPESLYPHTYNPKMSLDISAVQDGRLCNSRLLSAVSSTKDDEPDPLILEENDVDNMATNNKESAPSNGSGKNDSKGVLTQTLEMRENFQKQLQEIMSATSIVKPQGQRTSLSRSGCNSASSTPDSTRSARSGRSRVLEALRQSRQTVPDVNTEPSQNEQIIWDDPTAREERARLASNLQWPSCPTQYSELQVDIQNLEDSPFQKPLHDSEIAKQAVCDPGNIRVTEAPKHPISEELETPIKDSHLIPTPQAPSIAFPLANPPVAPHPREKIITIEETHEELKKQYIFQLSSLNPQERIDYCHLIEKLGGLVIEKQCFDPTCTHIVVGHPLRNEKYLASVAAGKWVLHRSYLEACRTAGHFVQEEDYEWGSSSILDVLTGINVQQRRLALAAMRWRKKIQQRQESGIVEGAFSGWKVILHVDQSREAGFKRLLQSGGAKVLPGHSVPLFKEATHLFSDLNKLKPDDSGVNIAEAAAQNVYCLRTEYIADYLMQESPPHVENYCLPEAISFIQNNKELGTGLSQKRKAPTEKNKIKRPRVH

Results are given in words; binding and its absence hold for the method and conditions named. Binding seen in cells or lysates may run through a third protein. These calls come from enrichment with a bait or labelling near it, and not all partners need be listed.

In the experiment the target is TOPBP1, bait of the mass spectrometric analysis of TOPBP1-associated proteins (UniProt Q92547). The experiment in a line: affinity purification with mass spectrometry; mass spectrometric analysis of TOPBP1-associated proteins, in the presence and absence of DNA damage.

B1: Treacle found by mass spectrometry among TOPBP1-associated proteins (protein, UniProt Q13428 1-1488)
chain: MAEARKRRELLPLIYHHLLRAGYVRAAREVKEQSGQKCFLAQPVTLLDIYTHWQQTSELGRKRKAEEDAALQAKKTRVSDPISTSESSEEEEEAEAETAKATPRLASTNSSVLGADLPSSMKEKAKAETEKAGKTGNSMPHPATGKTVANLLSGKSPRKSAEPSANTTLVSETEEEGSVPAFGAAAKPGMVSAGQADSSSEDTSSSSDETDVEGKPSVKPAQVKASSVSTKESPARKAAPAPGKVGDVTPQVKGGALPPAKRAKKPEEESESSEEGSESEEEAPAGTRSQVKASEKILQVRAASAPAKGTPGKGATPAPPGKAGAVASQTKAGKPEEDSESSSEESSDSEEETPAAKALLQAKASGKTSQVGAASAPAKESPRKGAAPAPPGKTGPAVAKAQAGKREEDSQSSSEESDSEEEAPAQAKPSGKAPQVRAASAPAKESPRKGAAPAPPRKTGPAAAQVQVGKQEEDSRSSSEESDSDREALAAMNAAQVKPLGKSPQVKPASTMGMGPLGKGAGPVPPGKVGPATPSAQVGKWEEDSESSSEESSDSSDGEVPTAVAPAQEKSLGNILQAKPTSSPAKGPPQKAGPVAVQVKAEKPMDNSESSEESSDSADSEEAPAAMTAAQAKPALKIPQTKACPKKTNTTASAKVAPVRVGTQAPRKAGTATSPAGSSPAVAGGTQRPAEDSSSSEESDSEEEKTGLAVTVGQAKSVGKGLQVKAASVPVKGSLGQGTAPVLPGKTGPTVTQVKAEKQEDSESSEEESDSEEAAASPAQVKTSVKKTQAKANPAAARAPSAKGTISAPGKVVTAAAQAKQRSPSKVKPPVRNPQNSTVLARGPASVPSVGKAVATAAQAQTGPEEDSGSSEEESDSEEEAETLAQVKPSGKTHQIRAALAPAKESPRKGAAPTPPGKTGPSAAQAGKQDDSGSSSEESDSDGEAPAAVTSAQVIKPPLIFVDPNRSPAGPAATPAQAQAASTPRKARASESTARSSSSESEDEDVIPATQCLTPGIRTNVVTMPTAHPRIAPKASMAGASSSKESSRISDGKKQEGPATQVSKKNPASLPLTQAALKVLAQKASEAQPPVARTQPSSGVDSAVGTLPATSPQSTSVQAKGTNKLRKPKLPEVQQATKAPESSDDSEDSSDSSSGSEEDGEGPQGAKSAHTLGPTPSRTETLVEETAAESSEDDVVAPSQSLLSGYMTPGLTPANSQASKATPKLDSSPSVSSTLAAKDDPDGKQEAKPQQAAGMLSPKTGGKEAASGTTPQKSRKPKKGAGNPQASTLALQSNITQCLLGQPWPLNEAQVQASVVKVLTELLEQERKKVVDTTKESSRKGWESRKRKLSGDQPAARTPRSKKKKKLGAGEGGEASVSPEKTSTTSKGKAKRDKASGDVKEKKGKGSLGSQGAKDEPEEELQKGMGTVEGGDQSNPKSKKEKKKSDKRKKDKEKKEKKKKAKKASTKDSESPSQKKKKKKKKTAEQTV
Take B1: the binding result is reported as “binds”.
